SMILES strings stand for the structures. This is one part of the list.

This assay concerns phosphomevalonate kinase (Streptococcus pneumoniae D39). As to the kind of experiment: phosphomevalonate kinase enzyme inhibition – biochemical, mevalonate pathway, pilot trial included, primary screen (AID 539).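 Note: 0% = full reaction with DMSO carrier and 100% = background rate without enzyme reaction.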 Conditions: purified PMK, PK/LDH-coupled NADH absorbance 340 nm; measured here: pilot screen replicates; at 10 µM; stronger effect = higher value.
Take `COP1(=S)c2c(C)nn(CCC#N)c2N=C(c2ccc(F)cc2)N1C` (stereo not given): the inhibition – broadly, the drop in the measured response relative to a control, in per cent – is 0.5%. Consider `O=C(COc1ccccc1)OC1CN2CCC1CC2` (stereo not given), for which the inhibition is 0%. `CP(=S)(Nn1cnnc1)Oc1ccccc1` (stereo not given) registered an inhibition of 3%. In turn, `Cc1nn(-c2ccccc2)c2c1P(=O)(N1CCOCC1)N(C)C(c1ccccc1)=N2` (stereo not given) returned an inhibition of 0%. On to `Cc1ccc(C)c(NP(C)(=O)Oc2ccccc2)c1` (stereo not given), for which the inhibition is 1.5%. For `CCOP1(=S)c2c(C)nn(CCC#N)c2N=C(c2ccccc2F)N1C` (stereo not given) the value was 1%; for `O=P(Nc1nccs1)(c1ccccc1)c1ccccc1`, 2.5%. With `CP(=O)(Nc1ccc2c(c1)OCCO2)Oc1ccccc1` (stereo not given), the inhibition was 5.5%. Molecule `CN(C)CCOC(=O)C(O)(c1ccccc1)C1CCCCC1` (stereo not given) registered an inhibition of 2.5%. For `CP(=O)(Nc1ccccn1)Oc1ccccc1` (stereo not given) the value was 0.5%.

The values above are taken from PubChem BioAssay AID539 (SRMLSC, 2006).
